Laboratory results: PubChem BioAssay AID602203 (INSERM, 2012)

Aim: 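Genes whose knock-down alters cisplatin killing of lung cancer cells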 (follow-up of hits)
Cell system: human A549 lung cancer cells
Knock-down reagent: siRNA pair against human genes
Conditions: cisplatin at a dose killing half of control-siRNA cells, given 48 h after transfection
Measured: 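Two siRNAs per gene scored +1 protective, -1 sensitizing, 0 if toxic by LDH or growth-reducing by WST-1; cisplatin given 48 h later at 50% control kill; scores summed, mean death shift versus control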
Direction: summed siRNA score for cisplatin death: higher = more siRNAs reduced cisplatin-induced cell death; change in cisplatin death versus control: higher = fewer cells died than in control
Hit rule: In these data the active calls have summed siRNA score for cisplatin death at about -3 or lower, or at about 3 or higher
Here is a random part of 999 deposited reagents. 85 of them (8.5%) were called active. 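Unclear how single-siRNA scores of -1, 0 or +1 give the printed -4 to 4 range; calls lie near -3 or 3 and beyond.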 A number with no mark means an inactive call. Not given: the amount of reagent, the time to read-out, the dose of the treatment.

| gene symbol | PubChem SID | summed siRNA score for cisplatin death | change in cisplatin death versus control (percentage points) |
| --- | --- | --- | --- |
| KDELR3 | SID131500519 | -1 | – |
| LOC286561 | SID131522899 | -1 | – |
| PCSK1N | SID131500461 | -1 | – |
| RTEL1 | SID131500440 | 0 | – |
| CNTNAP5 | SID131523181 | 1 | – |
| IKBKG | SID131523026 | 1 | – |
| TSTD2 | SID131520452 | 0 | – |
| VTI1A | SID131521446 | 0 | – |
| KRTAP12-4 | SID131523169 | 0 | – |
| ALG11 | SID131522781 | 0 | – |
| MARK4 | SID131522894 | 2 | – |
| CDC20 | SID131518908 | 1 | – |
| LATS1 | SID131523154 | 0 | – |
| LOC440731 | SID131522878 | 1 | – |
| NECTIN3 | SID131500472 | -1 | – |
| LOC442123 | SID131523222 | 1 | – |
| EPHA8 | SID131518912 | 0 | – |
| ARIH1 | SID131500334 | -1 | – |
| HPR | SID131521608 | 1 | – |
| HTR3C | SID131522683 | -1 | – |
| TXK | SID131500337 | -2 | – |
| LOC389124 | SID131523002 | 0 | – |
| PHPT1 | SID131501901 | -1 | – |
| CCDC144NL | SID131523120 | -1 | – |
| NDUFA8 | SID131501258 | -1 | – |
| BTN3A2 | SID131500441 | -2 | – |
| RPL3L | SID131523208 | 1 | – |
| ITGB6 | SID131500446 | -4 (active) | -10.7 |
| ABCD1 | SID131521761 | -1 | – |
| SSR1 | SID131523123 | 0 | – |
| MX1 | SID131500389 | -1 | – |
| PGRMC1 | SID131500480 | -2 | – |
| AHCYL1 | SID131500698 | 0 | – |
| UBAP2 | SID131522869 | 0 | – |
| LOC440071 | SID131522955 | -1 | – |
| KLRC4 | SID131500354 | -1 | – |
| INPP5J | SID131523041 | -1 | – |
| ANKRD16 | SID131522918 | -1 | – |
| COX6B1 | SID131523182 | 0 | – |
| LOC203510 | SID131523187 | -1 | – |
| LOC440101 | SID131522997 | 0 | – |
| ETV1 | SID131522983 | 0 | – |

Active calls, among the entries above:
| gene symbol | PubChem SID | summed siRNA score for cisplatin death | change in cisplatin death versus control (percentage points) |
| --- | --- | --- | --- |
| ITGB6 | SID131500446 | -4 (active) | -10.7 |

Next results follow:
| gene symbol | PubChem SID | summed siRNA score for cisplatin death | change in cisplatin death versus control (percentage points) |
| --- | --- | --- | --- |
| LOC401191 | SID131523157 | 1 | – |
| KRT33B | SID131500372 | -1 | – |
| SOCS6 | SID131522838 | 3 (active) | 17.1 |
| LOC440050 | SID131522992 | 1 | – |
| GTF2I | SID131522935 | 1 | – |
| ADAR | SID131500315 | -3 (active) | -9.46 |
| RNF26 | SID131521656 | 3 (active) | 14.5 |
| LOC387705 | SID131523043 | 1 | – |
| POLR3G | SID131523087 | 0 | – |
| LOC388931 | SID131522672 | 1 | – |
| PLA2R1 | SID131500638 | 0 | – |
| ALK | SID131523047 | 3 (active) | 12.1 |
| NTN3 | SID131522874 | 2 | – |
| LOC441665 | SID131522785 | 1 | – |
| MSRB2 | SID131522798 | -1 | – |
| SNAPC5 | SID131522996 | -1 | – |
| OGFRL1 | SID131520700 | 0 | – |
| LAMTOR3 | SID131522870 | 1 | – |
| SEMA3C | SID131522953 | -3 (active) | -6.36 |
| OR51B5 | SID131523159 | 1 | – |
| OR2AG2 | SID131523122 | 0 | – |
| LOC442125 | SID131523140 | 1 | – |
| BMP7 | SID131500501 | -4 (active) | -9.13 |
| DYRK2 | SID131522915 | 1 | – |
| SLC39A5 | SID131523231 | 3 (active) | 11 |
| TARP | SID131523017 | 1 | – |
| PKP3 | SID131522845 | 1 | – |
| CKAP2 | SID131500300 | -1 | – |
| SPMIP4 | SID131522922 | 1 | – |
| SDR9C7 | SID131523081 | 1 | – |
| SSTR5 | SID131520778 | 1 | – |
